Experimental data from PubChem BioAssay AID493014 (National Center for Advancing Translational Sciences (NCATS), 2011).
The list shows a part of the results. These are further read-outs of the screen, such as a control signal, another cell line or another target. No call is given for them. The list favours compounds with an active or inconclusive main result. Words in brackets tell the shape of the fitted curve; partial curves, single points and poor fits give uncertain potencies.

Experiment: qHTS Assay to Find Inhibitors of Chronic Active B-Cell Receptor Signaling
Conditions: ABC-DLBCL IkBa-CBG/CBR reporter, luminescence ratio (green luciferase fused to IkBa over red control in TMD8 lymphoma cells), 4 h
Summary of the method: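 Compounds up to 46 uM were incubated four hours with TMD8 cells whose green CBG68 luciferase is fused to IkappaBalpha; red CBR luminescence normalised the signal, and concentration-effect curves were fitted to fusion, red and ratio data.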

[1] = measured here: CBR red luminescence, cell number
[2] = measured here: IkBa-CBG green luminescence

| Structure (SMILES) | AC50 [1] | AC50 [2] |
| --- | --- | --- |
| Cc1ccc(C)c(S(=O)(=O)N2CCC(c3nc4c(nnn4Cc4ccc5c(c4)OCCO5)c(=O)[nH]3)CC2)c1 | 11.2 µM [falling, partial curve] |  |
| CCCCN(C(=O)NC(=O)Nc1ccccc1OC)S(C)(=O)=O | 35.5 µM [rising, single point] |  |
| CCC(=O)Nc1ccc(S(=O)(=O)NCc2ccco2)cc1 | 0.517 µM [falling, full curve, poor fit] |  |
| O=C(NCc1ccc(F)cc1)c1cc2c(s1)CCCC2 | 1.84 µM [rising, partial curve, poor fit] |  |
| O=S(=O)(Nc1nnc(C2CC2)s1)c1ccccc1 | 22.4 µM [falling, single point] |  |
| CCC(C)Sc1ccc(-c2nc3cnccn3c2NC2CCCCC2)cc1 (stereo unspecified) | 16.4 µM [rising, partial curve, poor fit] |  |
| O=C(NCc1ccco1)c1cc(-c2cccs2)on1 | 10 µM [falling, partial curve, poor fit] |  |
| Cc1ccc(S(=O)(=O)c2c(N)n(Cc3ccco3)c3nc4ccccc4nc23)cc1 | 8.91 µM [falling, partial curve] |  |
| CC1CCCC(NS(=O)(=O)c2cc(Br)cnc2N)C1C (stereo unspecified) | 15.8 µM [rising, partial curve, poor fit] |  |
| CCn1ccc(C(=O)Nc2cccc(Cl)c2)n1 | 2.51 µM [rising, partial curve, poor fit] |  |
| CCn1nnc2cc(C(=O)OCC(=O)N(C)Cc3cccc(F)c3)ccc21 | 29.1 µM [rising, single point] |  |
| Cc1ccccc1NC(=O)CSC(=O)c1ccccc1 |  | 25.9 µM [falling, single point] |
| COc1ccc(C(=O)COC(=O)c2cc(S(=O)(=O)N3CCCCC3)ccc2N2CCOCC2)c(OC)c1 | 29.1 µM [rising, single point] |  |
| CCOC(=O)c1ccc(S(=O)(=O)NC2CCC(C)CC2)cc1 (stereo unspecified) | 0.082 µM [rising, full curve, poor fit] |  |
| O=C1NC(Cc2ccccc2)c2nc3cc(F)ccc3c(=O)n2-c2cc(Cl)ccc21 (stereo unspecified) | 0.731 µM [rising, full curve] |  |
| CC1CCCCC1NC(=O)COC(=O)c1ccc(S(=O)(=O)NCc2ccco2)cc1 (stereo unspecified) | 3.66 µM [falling, single point] |  |
| O=C1/C(=C/c2cccs2)SC(=S)N1NS(=O)(=O)c1ccccc1 | 6.31 µM [falling, full curve, poor fit] |  |
| C=C1CC(C(=O)N/N=C/c2ccccc2)C1 | 16.4 µM [falling, single point] |  |
| COc1ccc(-c2cc(=O)c3cc(OC)ccc3o2)cc1 | 0.398 µM [rising, full curve, poor fit] |  |
| COc1ccc(CC(=O)Nc2cccc(C(C)=O)c2)cc1S(=O)(=O)N1CCOCC1 | 0.461 µM [rising, full curve, poor fit] |  |
| Cc1ccsc1C(=O)NNC(=O)c1ccccc1F | 11.6 µM [falling, partial curve] |  |

Arranged by molar mass (descending): 3 of the compounds above.

| Structure (SMILES) | AC50 [1] | AC50 [2] |
| --- | --- | --- |
| CCC(C)Sc1ccc(-c2nc3cnccn3c2NC2CCCCC2)cc1 (stereo unspecified) | 16.4 µM [rising, partial curve, poor fit] |  |
| CCC(=O)Nc1ccc(S(=O)(=O)NCc2ccco2)cc1 | 0.517 µM [falling, full curve, poor fit] |  |
| COc1ccc(-c2cc(=O)c3cc(OC)ccc3o2)cc1 | 0.398 µM [rising, full curve, poor fit] |  |

The list goes on:

| Structure (SMILES) | AC50 [1] | AC50 [2] |
| --- | --- | --- |
| COc1ccc(NC(=O)CSc2c3c(nc4ccccc24)CCCC3)c(OC)c1 | 29.1 µM [falling, single point] |  |
| CC1CC(C)CN(C(=O)CCC(=O)Nc2nnc(C3CCCCC3)s2)C1 (stereo unspecified) | 3.55 µM [rising, partial curve, poor fit] |  |
| COc1ccc(C(=O)NCCN2C(=O)S/C(=C\c3cccnc3)C2=O)c(OC)c1OC |  | 18.4 µM [falling, partial curve, poor fit] |
| CC(C)(C)c1ccc(SCCc2cccnc2)cc1 | 0.708 µM [rising, full curve, poor fit] |  |
| Cn1c(-c2ccc(F)cc2)cnc1NCc1cccc(F)c1 | 35.5 µM [falling, single point] |  |
| Cc1ccc(C)c(NC(=O)c2ccccc2NC(=O)C2CCCO2)c1 (stereo unspecified) | 11.2 µM [rising, partial curve] |  |
| CCC1=C2CC[C@H]3C(=O)N(CC)C(=O)[C@H]3[C@H]2[C@@]2(Cc3ccccc3)C(=NCc3ccccc3)OC(=O)N2C1=O | 0.1 µM [falling, full curve, poor fit] |  |
| CCOC(=O)[C@@H]1[C@H]2COc3cc(OC)ccc3[C@@H]2N2C(=O)N(c3ccc(Cl)cc3)C(=O)[C@@]12C | 0.355 µM [rising, full curve, poor fit] |  |
| CCC1=NN(C(=O)C(=O)Nc2ccccc2OC)C(O)(C(F)(F)F)C1 (stereo unspecified) | 7.08 µM [falling, partial curve] |  |
| CCCNC(=O)CC1C(=O)N(Cc2ccccc2)C(C)c2nc3ccccc3n21 (stereo unspecified) | 2.59 µM [rising, single point] | 2.91 µM [falling, single point] |
| Cc1ccc2nc3c(cc(C(=O)NCCCn4ccnc4)n3C)c(=O)n2c1 | 8.91 µM [rising, partial curve, poor fit] |  |
| O=C(CN1C(=O)S/C(=C\c2ccc(F)cc2)C1=O)NCCCn1ccnc1 | 10 µM [falling, partial curve, poor fit] |  |
| Cc1ccc(CN2CC(C(=O)Nc3ccncc3)CC2=O)cc1 (stereo unspecified) | 5.01 µM [rising, full curve, poor fit] |  |
| Cc1[nH]c2ccccc2c1/C=N/Nc1nncn1N | 8.91 µM [falling, partial curve] |  |
| COc1ccc(CN(C)Cc2nc3scc(-c4ccccc4)c3c(=O)[nH]2)cc1OC |  | 23.1 µM [falling, single point] |
| Cc1cc(C)cc(-n2cc(C(=O)O)c(=O)cc2C)c1 | 35.5 µM [rising, single point] |  |
| CCCOc1cccc(-c2cc(C(=O)NNC(=S)NCC)c3ccccc3n2)c1 | 25.9 µM [falling, single point] |  |
| CSc1nnc(-c2sc3cc(C(F)(F)F)cnc3c2-c2ccccc2)n1C | 29.1 µM [rising, single point] |  |
| Cc1ccc(S(=O)(=O)Nc2ncnc3sc(C)c(C)c23)cc1 | 9.2 µM [falling, partial curve, poor fit] |  |
| NC(=O)C1=NOC(CNc2ncc(C(F)(F)F)cc2Cl)C1 (stereo unspecified) | 25.9 µM [rising, single point] |  |
| COc1ccccc1NC(=O)Cn1cnc2c(nnn2-c2ccc(C)cc2)c1=O | 1.12 µM [rising, full curve, poor fit] |  |

| Structure (SMILES) | AC50 [1] | AC50 [2] |
| --- | --- | --- |
| c1cncc(-c2noc(CC3CCCCC3)n2)c1 | 6.51 µM [falling, single point] | 4.11 µM [rising, partial curve, poor fit] |
| Cn1c(SCC(=O)N2c3ccccc3CCc3ccccc32)nnc1-c1ccc(O)cc1 | 29.1 µM [falling, single point] |  |
| CCCS(=O)(=O)Nc1c(C(=O)O)[nH]c2ccc(OC)cc12 | 11.2 µM [falling, partial curve, poor fit] |  |
| COc1ccc(/C=N/Nc2nccnc2Cl)c(OC)c1 | 10 µM [falling, partial curve] | 12.6 µM [falling, partial curve, poor fit] |
| O=C(Cn1cnc2cc([N+](=O)[O-])ccc2c1=O)Nc1ccc2c(c1)OCO2 | 20 µM [falling, single point] |  |
| COc1ccc2cc(C(=O)NCc3ccco3)c(=Nc3ccc(C(=O)O)cc3)oc2c1 | 0.366 µM [falling, full curve, poor fit] |  |
| Cc1[nH]c2ccccc2c1N=Nc1ccccc1C(=O)O | 2.31 µM [falling, full curve] |  |
| CCOC(=O)c1c(Nc2ccccc2)sc(/C=C2\C=Nc3ccccc32)c1O | 1.3 µM [rising, full curve, poor fit] |  |
| Brc1ccc(OCCCN2CCOCC2)cc1 | 1.16 µM [rising, full curve, poor fit] |  |
| Fc1cccc(Cl)c1Cn1nnc2c(NCc3ccccn3)ncnc21 | 11.6 µM [falling, partial curve, poor fit] |  |
| CCCc1cc(=O)[nH]c(SCC(=O)Nc2nc(-c3ccccc3)cs2)n1 | 12.6 µM [falling, partial curve, poor fit] |  |
| CCOc1ccccc1N(CC(=O)NC1CCCCC1)C(=O)CCC(=O)Nc1cc(C)ccn1 | 17.8 µM [falling, single point] |  |
| Cc1ccc(/C=C/C2=NN(Cc3ccccc3Cl)C(=O)CC2)cc1 | 11.6 µM [rising, partial curve, poor fit] |  |
| CC1C/C(=N/NC(=O)c2ccc(CSc3nc4ccccc4[nH]3)cc2)CC(C)(C)C1 (stereo unspecified) | 29.1 µM [falling, single point] |  |
| O=S(=O)(NCCc1cn2ccccc2n1)c1ccc(-c2ccccc2)cc1 | 17.8 µM [falling, single point] |  |
| CCC(C)NC(=O)c1cc2c(=O)[nH]c3ccc(C)cc3c2s1 (stereo unspecified) | 4.47 µM [rising, full curve, poor fit] |  |
| CCCNC(=O)COC(=O)c1cc(-c2ccc(OC)cc2)nc2ccccc12 | 4.47 µM [rising, full curve, poor fit] |  |
| CN(C)c1ccc(C#Cc2ccc3cc(CCCO)oc(=O)c3c2)cc1 | 0.82 µM [rising, full curve] |  |
| CC(C)c1ccc(/C=C(\c2nc3ccccc3[nH]2)S(=O)(=O)c2ccccc2)cc1 | 29.1 µM [falling, single point] | 4.11 µM [falling, partial curve, poor fit] |
| Cc1cccc(NC(=S)Nc2cccc(C(F)(F)F)c2)n1 | 7.31 µM [rising, partial curve] |  |
